Experimental data taken from PMC4911407.
These are yes or no findings as the source states them, for the method shown. For some assays here: In cells and extracts the contact can be indirect. Some entries that bind do so weakly or less than the wild type.

Amino acid sequences for entries named in this document (tags omitted).
UniProt Q39026: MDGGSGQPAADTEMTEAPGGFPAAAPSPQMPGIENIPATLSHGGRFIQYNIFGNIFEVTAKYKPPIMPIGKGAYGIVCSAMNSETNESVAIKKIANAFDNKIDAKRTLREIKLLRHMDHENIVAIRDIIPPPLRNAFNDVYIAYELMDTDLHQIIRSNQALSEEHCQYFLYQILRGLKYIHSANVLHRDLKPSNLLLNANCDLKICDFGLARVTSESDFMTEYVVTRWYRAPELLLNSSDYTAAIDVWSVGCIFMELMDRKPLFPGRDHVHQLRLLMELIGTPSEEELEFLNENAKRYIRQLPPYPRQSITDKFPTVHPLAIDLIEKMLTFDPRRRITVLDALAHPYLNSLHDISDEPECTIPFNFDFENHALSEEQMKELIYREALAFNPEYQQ

Assays:
[1] = target: pBD-GAL4-MPK6 (Arabidopsis thaliana) (UniProt Q39026); assay: two-hybrid; yeast co-transformed with pAD-GAL4-AtDOF4.7 and pBD-GAL4-MPK3/MPK6; growth on 5 mM 3-AT medium lacking Trp, Leu, His and Ade, 28°C, 3 days
[2] = target: pUC-SPYCE-MPK6 (Arabidopsis thaliana) (UniProt Q39026); assay: split reporter; BiFC: pUC-SPYNE-AtDOF4.7 and pUC-SPYCE-MPK3/6 co-transformed into Arabidopsis mesophyll protoplasts; YFP fluorescence by laser confocal microscopy

Binder | binding [1] | binding [2]
pAD-GAL4-AtDOF4.7 (protein, UniProt Q84K52 1-246) MMTSSHQSNTTGFKPRRIKTTAKPPRQINNKEPSPATQPVLKCPRCDSVNTKFCYYNNYSLSQPRHYCKNCRRYWTRGGALRNVPIGGSTRNKNKPCSLQVISSPPLFSNGTSSASRELVRNHPSTAMMMMSSGGFSGYMFPLDPNFNLASSSIESLSSFNQDLHQKLQQQRLVTSMFLQDSLPVNEKTVMFQNVELIPPSTVTTDWVFDRFATGGGATSGNHEDNDDGEGNLGNWFHNANNNALL | binds | 
pUC-SPYNE-AtDOF4.7 (protein, UniProt Q84K52 1-246) MMTSSHQSNTTGFKPRRIKTTAKPPRQINNKEPSPATQPVLKCPRCDSVNTKFCYYNNYSLSQPRHYCKNCRRYWTRGGALRNVPIGGSTRNKNKPCSLQVISSPPLFSNGTSSASRELVRNHPSTAMMMMSSGGFSGYMFPLDPNFNLASSSIESLSSFNQDLHQKLQQQRLVTSMFLQDSLPVNEKTVMFQNVELIPPSTVTTDWVFDRFATGGGATSGNHEDNDDGEGNLGNWFHNANNNALL |  | binds
